Assay results from doi:10.1101/2019.12.11.872606.
Where two headings read alike, the source gives them in different places. No constants are given. Whether binding was seen depends on the method and setting. For some assays here: In cells and extracts the contact can be indirect. Some results given as binding are weak or reduced against the parent protein; the word gives no strength.

Amino acid sequences for entries named in this document (tags omitted). Residues count along the entry.
UniProt Q60610: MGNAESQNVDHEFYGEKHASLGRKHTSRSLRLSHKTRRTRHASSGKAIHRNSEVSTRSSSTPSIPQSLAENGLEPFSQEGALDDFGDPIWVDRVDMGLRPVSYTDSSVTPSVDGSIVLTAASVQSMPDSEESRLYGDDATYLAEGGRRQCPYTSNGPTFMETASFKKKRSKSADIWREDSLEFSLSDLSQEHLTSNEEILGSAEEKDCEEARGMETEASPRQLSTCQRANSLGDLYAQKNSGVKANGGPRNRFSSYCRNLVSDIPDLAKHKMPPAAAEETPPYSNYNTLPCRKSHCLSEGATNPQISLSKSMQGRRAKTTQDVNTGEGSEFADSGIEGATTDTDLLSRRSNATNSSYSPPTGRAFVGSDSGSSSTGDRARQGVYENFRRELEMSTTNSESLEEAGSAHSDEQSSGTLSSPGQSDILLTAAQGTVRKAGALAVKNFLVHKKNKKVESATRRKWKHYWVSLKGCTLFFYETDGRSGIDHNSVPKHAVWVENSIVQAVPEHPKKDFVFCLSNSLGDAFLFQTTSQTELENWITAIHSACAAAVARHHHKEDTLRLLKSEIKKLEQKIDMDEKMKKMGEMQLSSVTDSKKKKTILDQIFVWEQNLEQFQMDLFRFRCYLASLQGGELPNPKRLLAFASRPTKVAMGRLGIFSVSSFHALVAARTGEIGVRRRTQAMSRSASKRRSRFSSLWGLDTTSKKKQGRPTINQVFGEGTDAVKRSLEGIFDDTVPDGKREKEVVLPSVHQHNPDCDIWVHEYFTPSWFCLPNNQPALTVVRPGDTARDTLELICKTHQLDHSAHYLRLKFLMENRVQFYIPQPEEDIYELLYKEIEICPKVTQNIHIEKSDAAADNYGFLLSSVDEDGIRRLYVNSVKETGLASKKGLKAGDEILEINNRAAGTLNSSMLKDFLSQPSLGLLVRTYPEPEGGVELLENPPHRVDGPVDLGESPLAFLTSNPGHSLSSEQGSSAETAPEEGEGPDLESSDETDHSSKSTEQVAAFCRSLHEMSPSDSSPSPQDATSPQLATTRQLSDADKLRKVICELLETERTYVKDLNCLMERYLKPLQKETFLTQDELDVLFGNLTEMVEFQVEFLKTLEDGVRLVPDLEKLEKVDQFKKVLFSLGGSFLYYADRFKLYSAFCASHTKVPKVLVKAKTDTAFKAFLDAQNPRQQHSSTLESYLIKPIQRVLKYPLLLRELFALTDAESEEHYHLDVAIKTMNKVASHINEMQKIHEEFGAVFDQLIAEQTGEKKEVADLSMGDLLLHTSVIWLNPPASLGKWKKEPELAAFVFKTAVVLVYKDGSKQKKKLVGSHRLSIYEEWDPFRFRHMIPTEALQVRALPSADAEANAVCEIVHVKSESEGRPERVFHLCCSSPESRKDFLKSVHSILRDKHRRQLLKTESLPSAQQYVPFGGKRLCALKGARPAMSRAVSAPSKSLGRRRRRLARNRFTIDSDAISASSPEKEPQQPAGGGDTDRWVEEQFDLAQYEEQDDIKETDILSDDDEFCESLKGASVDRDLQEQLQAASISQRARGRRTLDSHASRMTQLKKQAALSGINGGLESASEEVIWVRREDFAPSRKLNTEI
UniProt O60469: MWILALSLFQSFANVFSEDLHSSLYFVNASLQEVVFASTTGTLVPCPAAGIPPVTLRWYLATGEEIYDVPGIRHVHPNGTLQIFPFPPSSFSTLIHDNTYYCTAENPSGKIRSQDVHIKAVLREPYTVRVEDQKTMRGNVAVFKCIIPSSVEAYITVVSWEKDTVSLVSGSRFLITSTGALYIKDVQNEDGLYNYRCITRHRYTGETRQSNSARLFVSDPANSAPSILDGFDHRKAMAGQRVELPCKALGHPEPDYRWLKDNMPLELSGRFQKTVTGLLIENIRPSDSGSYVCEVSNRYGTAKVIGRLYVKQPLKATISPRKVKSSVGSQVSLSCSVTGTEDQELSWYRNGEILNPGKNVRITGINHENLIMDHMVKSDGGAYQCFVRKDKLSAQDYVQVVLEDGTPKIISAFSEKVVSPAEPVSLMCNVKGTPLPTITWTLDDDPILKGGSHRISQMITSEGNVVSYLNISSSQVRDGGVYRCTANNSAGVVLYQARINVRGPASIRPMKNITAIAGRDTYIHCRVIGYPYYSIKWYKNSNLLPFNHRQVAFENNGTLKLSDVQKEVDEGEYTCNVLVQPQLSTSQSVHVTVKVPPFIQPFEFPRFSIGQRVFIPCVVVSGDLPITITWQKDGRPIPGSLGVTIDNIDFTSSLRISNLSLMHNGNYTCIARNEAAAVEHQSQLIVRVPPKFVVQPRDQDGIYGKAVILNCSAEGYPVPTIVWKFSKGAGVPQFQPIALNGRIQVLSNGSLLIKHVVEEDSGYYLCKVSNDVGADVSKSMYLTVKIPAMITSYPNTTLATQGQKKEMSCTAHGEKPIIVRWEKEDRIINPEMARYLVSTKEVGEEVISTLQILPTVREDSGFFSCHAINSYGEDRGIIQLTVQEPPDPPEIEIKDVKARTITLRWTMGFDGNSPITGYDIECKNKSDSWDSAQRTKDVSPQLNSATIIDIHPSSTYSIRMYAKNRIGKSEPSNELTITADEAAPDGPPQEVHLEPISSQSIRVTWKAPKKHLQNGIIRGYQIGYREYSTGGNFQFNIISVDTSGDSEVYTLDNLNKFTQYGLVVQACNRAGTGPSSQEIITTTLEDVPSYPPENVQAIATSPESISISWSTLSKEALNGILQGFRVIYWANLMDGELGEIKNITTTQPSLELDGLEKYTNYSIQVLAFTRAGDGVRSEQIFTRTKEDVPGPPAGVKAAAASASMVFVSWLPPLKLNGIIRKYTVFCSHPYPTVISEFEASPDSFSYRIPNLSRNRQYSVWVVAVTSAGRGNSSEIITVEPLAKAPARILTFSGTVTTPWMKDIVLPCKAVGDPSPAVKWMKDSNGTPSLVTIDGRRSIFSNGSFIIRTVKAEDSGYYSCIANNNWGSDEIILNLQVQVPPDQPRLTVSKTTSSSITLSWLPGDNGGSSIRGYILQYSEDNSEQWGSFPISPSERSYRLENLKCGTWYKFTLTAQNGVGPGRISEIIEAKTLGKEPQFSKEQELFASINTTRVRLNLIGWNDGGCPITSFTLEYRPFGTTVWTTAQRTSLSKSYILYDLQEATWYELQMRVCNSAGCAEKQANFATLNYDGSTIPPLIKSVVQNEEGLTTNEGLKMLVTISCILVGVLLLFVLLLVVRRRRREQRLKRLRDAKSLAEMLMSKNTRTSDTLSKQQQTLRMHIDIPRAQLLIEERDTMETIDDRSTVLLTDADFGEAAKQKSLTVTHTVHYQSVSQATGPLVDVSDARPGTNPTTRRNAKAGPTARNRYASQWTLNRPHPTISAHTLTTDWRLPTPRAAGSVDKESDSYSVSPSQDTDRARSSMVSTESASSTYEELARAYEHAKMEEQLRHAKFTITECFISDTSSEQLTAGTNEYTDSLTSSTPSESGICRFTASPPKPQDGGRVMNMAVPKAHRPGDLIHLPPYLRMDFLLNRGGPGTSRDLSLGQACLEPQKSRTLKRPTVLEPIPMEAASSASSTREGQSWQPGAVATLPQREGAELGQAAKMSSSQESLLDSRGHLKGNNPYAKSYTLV
UniProt Q60934, residues 31-836: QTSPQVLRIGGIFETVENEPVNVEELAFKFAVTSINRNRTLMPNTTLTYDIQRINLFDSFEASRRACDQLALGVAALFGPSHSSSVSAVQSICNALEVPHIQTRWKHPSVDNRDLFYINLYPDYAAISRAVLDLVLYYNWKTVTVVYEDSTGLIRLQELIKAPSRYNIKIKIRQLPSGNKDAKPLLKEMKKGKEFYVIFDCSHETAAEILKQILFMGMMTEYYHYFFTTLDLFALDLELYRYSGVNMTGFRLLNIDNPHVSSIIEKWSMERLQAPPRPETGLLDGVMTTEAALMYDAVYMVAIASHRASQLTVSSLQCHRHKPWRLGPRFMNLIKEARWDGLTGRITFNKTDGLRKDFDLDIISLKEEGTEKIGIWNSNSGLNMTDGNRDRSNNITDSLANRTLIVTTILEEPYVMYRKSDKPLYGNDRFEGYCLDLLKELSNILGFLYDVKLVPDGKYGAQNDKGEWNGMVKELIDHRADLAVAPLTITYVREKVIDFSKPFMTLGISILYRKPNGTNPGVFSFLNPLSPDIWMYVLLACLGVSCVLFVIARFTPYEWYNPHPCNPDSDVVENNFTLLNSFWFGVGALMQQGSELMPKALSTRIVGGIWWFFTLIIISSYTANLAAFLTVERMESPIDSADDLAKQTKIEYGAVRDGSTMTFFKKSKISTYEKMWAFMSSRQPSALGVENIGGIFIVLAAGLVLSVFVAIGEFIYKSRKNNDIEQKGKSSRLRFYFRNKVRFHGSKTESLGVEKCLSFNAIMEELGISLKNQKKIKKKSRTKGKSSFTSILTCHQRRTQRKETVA
UniProt Q8VHH5: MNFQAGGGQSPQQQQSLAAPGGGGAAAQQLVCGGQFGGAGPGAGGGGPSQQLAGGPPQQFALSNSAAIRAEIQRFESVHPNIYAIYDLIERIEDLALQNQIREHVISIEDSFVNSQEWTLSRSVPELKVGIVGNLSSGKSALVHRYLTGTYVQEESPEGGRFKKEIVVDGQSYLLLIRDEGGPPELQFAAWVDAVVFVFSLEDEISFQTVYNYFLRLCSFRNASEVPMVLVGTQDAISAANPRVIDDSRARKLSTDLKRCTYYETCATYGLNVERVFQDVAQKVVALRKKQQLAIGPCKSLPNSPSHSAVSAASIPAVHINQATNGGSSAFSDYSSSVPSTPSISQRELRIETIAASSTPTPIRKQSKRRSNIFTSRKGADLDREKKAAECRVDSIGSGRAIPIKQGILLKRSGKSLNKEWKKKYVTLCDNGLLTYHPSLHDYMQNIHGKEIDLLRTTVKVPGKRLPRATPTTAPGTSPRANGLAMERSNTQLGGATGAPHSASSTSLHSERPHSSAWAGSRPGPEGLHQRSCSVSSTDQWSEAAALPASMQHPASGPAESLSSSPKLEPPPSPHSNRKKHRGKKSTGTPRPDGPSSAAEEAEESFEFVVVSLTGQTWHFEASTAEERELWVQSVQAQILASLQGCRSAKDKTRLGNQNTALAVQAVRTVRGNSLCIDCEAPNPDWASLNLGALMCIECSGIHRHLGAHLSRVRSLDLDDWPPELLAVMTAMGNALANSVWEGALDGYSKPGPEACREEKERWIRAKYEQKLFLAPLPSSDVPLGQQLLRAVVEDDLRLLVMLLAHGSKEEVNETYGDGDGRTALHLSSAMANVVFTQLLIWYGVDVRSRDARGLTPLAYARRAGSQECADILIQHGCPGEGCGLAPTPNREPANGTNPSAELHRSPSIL
UniProt P78352, residues 154-356: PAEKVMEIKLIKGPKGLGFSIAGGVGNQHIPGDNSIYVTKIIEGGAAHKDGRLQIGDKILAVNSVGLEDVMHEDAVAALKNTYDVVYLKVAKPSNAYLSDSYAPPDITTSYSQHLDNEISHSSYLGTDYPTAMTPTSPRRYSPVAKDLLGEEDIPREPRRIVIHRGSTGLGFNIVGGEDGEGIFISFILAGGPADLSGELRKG
UniProt Q811D0: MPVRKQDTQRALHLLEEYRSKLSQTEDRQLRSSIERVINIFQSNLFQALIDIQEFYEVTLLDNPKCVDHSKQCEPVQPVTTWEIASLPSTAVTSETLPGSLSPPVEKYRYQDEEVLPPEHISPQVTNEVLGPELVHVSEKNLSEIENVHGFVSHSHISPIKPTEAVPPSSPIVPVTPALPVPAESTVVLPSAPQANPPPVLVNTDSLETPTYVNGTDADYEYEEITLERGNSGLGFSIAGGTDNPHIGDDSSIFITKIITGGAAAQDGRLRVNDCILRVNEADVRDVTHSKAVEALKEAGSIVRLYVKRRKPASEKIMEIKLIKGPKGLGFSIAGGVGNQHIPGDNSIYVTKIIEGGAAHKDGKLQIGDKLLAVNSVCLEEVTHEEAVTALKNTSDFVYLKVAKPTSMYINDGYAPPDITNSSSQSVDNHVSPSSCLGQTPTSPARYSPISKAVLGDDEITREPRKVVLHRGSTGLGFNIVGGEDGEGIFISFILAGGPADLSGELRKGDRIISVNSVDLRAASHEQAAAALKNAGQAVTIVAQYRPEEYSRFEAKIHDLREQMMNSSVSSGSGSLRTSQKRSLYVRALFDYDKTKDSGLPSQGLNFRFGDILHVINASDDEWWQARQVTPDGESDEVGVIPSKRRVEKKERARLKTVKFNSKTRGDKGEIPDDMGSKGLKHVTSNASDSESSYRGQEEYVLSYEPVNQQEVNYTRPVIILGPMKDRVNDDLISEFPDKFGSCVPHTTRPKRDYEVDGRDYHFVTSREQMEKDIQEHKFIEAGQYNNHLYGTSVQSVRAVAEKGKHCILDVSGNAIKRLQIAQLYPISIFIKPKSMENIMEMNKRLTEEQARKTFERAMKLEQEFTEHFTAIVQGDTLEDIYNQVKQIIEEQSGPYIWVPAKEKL

Legend:
[1] = biological target: T1, Hunk (endogenous, mouse cortical neurons) (mouse (endogenous in primary cortical neurons)) (UniProt O88866); test: proximity ligation
T1 sequence: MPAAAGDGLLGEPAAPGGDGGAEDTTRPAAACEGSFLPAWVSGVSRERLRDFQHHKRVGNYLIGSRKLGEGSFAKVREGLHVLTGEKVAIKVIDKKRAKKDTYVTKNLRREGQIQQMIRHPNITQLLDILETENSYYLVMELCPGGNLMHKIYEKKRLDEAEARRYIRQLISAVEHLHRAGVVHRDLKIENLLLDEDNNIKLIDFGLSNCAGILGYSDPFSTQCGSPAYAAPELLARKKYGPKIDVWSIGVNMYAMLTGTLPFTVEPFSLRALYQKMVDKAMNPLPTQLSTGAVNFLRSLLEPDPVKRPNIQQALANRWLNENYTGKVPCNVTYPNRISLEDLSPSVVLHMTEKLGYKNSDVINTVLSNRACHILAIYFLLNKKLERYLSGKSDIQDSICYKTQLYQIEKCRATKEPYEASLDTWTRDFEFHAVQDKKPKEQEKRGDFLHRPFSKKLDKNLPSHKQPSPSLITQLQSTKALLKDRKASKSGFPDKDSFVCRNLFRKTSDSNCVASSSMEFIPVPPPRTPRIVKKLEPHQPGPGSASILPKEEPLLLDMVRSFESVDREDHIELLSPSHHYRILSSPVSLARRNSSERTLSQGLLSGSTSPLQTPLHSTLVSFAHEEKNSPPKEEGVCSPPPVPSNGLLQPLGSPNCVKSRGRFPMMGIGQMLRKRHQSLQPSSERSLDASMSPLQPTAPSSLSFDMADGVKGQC

[2] = biological target: Tiam1 (endogenous, mouse cortical neurons) (mouse (endogenous in primary cortical neurons)) (UniProt Q60610); test: proximity ligation
human DSCAM (human) [3] = biological target: human DSCAM (human) (UniProt O60469); test: two-hybrid
human DSCAM (human) [4] = biological target: human DSCAM (human) (UniProt O60469); test: two-hybrid; remark: listed apart in the source
[5] = biological target: T2, Kcnj6 (endogenous, mouse cortical neurons) (mouse (endogenous in primary cortical neurons)) (UniProt P48542); test: proximity ligation
T2 sequence: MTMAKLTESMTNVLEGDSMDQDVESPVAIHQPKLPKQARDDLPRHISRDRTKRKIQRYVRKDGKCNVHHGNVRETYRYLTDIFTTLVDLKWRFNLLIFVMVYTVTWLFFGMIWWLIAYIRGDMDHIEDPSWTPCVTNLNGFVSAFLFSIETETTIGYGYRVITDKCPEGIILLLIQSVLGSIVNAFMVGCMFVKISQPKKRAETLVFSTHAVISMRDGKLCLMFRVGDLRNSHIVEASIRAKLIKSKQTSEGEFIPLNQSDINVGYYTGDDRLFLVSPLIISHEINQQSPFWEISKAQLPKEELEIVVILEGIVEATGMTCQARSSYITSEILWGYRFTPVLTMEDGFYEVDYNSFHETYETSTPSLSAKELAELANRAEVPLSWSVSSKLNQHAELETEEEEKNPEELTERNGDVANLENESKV

[6] = biological target: Grik1 (endogenous, mouse cortical neurons) (mouse (endogenous in primary cortical neurons)) (UniProt Q60934); test: proximity ligation
[7] = biological target: Itsn1 (endogenous, mouse cortical neurons) (mouse (endogenous in primary cortical neurons)) (UniProt Q9Z0R4); test: proximity ligation
[8] = biological target: Dyrk1a-GFP construct (mouse) (UniProt Q61214); test: proximity ligation
[9] = biological target: Grik1 (endogenous, mouse cortical neurons) (mouse (endogenous in primary cortical neurons)) (UniProt Q60934); test: proximity ligation; remark: listed apart in the source
[10] = biological target: T1, Hunk (endogenous, mouse cortical neurons) (mouse (endogenous in primary cortical neurons)); test: proximity ligation; remark: listed apart in the source

Agap3 (endogenous, mouse cortical neurons) (from UniProt Q8VHH5 1-910)
binding [1]: binds

Bin1 (endogenous, mouse cortical neurons) (from UniProt O08539 1-588)
binding [2]: binds

DLG1 (aa 305-653) (from UniProt Q12959 305-653) (domain or fragment)
binding (human DSCAM (human) [3]): binds
binding (human DSCAM (human) [4]): binds

DLG4 (154-356) (from UniProt P78352 154-356) (domain or fragment)
binding (human DSCAM (human) [3]): binds
binding (human DSCAM (human) [4]): binds

Dlg1 (endogenous, mouse cortical neurons) (from UniProt Q811D0 1-905)
binding [2]: binds
binding [5]: binds

Hcn1 (endogenous, mouse cortical neurons) (from UniProt O88704 1-910)
binding [6]: binds

Kalrn (endogenous, mouse cortical neurons) (from UniProt A2CG49 1-2964)
binding [6]: binds

Kcnq2 (endogenous, mouse cortical neurons) (from UniProt Q9Z351 1-759)
binding [6]: binds

Limk1 (endogenous, mouse cortical neurons) (from UniProt P53668 1-647)
binding [1]: binds

Snap25 (endogenous, mouse cortical neurons) (from UniProt P60879 1-206)
binding [7]: binds

B1: DLG3 (aa 212-385) (domain or fragment, UniProt Q92796 212-385)
chain: LVVRRRQPPPETIMEVNLLKGPKGLGFSIAGGIGNQHIPGDNSIYITKIIEGGAAQKDGRLQIGDRLLAVNNTNLQDVRHEEAVASLKNTSDMVYLKVAKPGSLHLNDMYAPPDYASTFTALADNHISHNSSLGYLGAVESKVSYPAPPQVPPTRYSPIPRHMLAEEDFTREPR
binding (human DSCAM (human) [3]): binds

B2: Rnasen (endogenous, mouse cortical neurons) (protein, UniProt Q5HZJ0 1-1373)
chain: MQGNTCHRMSYHPGRGCPRGRGGHGARPSAPAFRPQNLRLLHPQQPPAQYQYEPPSAPSSSYSNSQAPSFMPPRPDFVPYPPPAAPSAQGPLPPCPVRPPYPNHQMRHPFPVPPCFPPMPPPMPCPNNPPASGAPPGQGTFPFMVPPPSMPHPPPPPVMPQQVNYQYPPGYSHSFPPPGFNSYQNNSSSFPPSANSSSTPHFRHLPPYSLPKAQNERRSPERLKHYDDHRHRDHSHGRGERHRSLERRERGRSPERRRPESRYRSDYDRGRTPPPRHRSYERSRERDRERHRHREARRSPSLERSYKKEYKRSGRSYALPVAPEPAGCTPELPGEMIKTTESWAPPPENVNHRSPSREKKRARWEEEKDRWSDSQGSGKEKNYTSIKEKEAEEVPPEKTEEEEEELLKPVWIRCTHSESYYSSDPMDQVGDSTVVGTSRLRDLYDKFEEELGNRQEKAKAARPPWEPPKTKLDEDLESSSESECETDDDSTCSSSSDSEVFDVIAEIKRKKAHPDRLHDELWYNDPGQMNDGPLCKCSAKARRTGIRHSIYPGEEAIKPCRPMTNNAGRLFHYRITVSPPTNFLTDRPTVIEYDDHEYIFEGFSMFAHAPLTNIPLCKVIRFNIDYTIHFIEEMMPENFCVKGLELFSLFLFRDILELYDWNLKGPLFEDSPPCCPRFHFMPRFVRFLPDGGKEVLSMHQILLYLLRCSKALVPEEEIANMLQWEELEWQKYAEECKGMIVTNPGTKPSSVRIDQLDREQFNPEVITFPIIVHFGIRPAQLSYAGDPQYQKLWKSYVKLRHLLANSPKVKQTDKQKLAQREEALQKIRQKNTMRREVTVELSSQGFWKTGIRSDVCQHAMMLPVLTHHIRYHQCLMHLDKLIGYTFQDRCLLQLAMTHPSHHLNFGMNPDHARNSLSNCGIRQPKYGDRKVHHMHMRKKGINTLINIMSRLGQDDPTPSRINHNERLEFLGDAVVEFLTSVHLYYLFPSLEEGGLATYRTAIVQNQHLAMLAKKLELDRFMLYAHGPDLCRESDLRHAMANCFEALIGAVYLEGSLEEAKQLFGRLLFNDPDLREVWLNYPLHPLQLQEPNTDRQLIETSPVLQKLTEFEEAIGVIFTHVRLLARAFTLRTVGFNHLTLGHNQRMEFLGDSIMQLVATEYLFIHFPDHHEGHLTLLRSSLVNNRTQAKVAEELGMQEYAITNDKTKRPVALRTKTLADLLESFIAALYIDKDLEYVHTFMNVCFFPRLKEFILNQDWNDPKSQLQQCCLTLRTEGKEPDIPLYKTLQTVGPSHARTYTVAVYFKGERIGCGKGPSIQQAEMGAAMDALEKYNFPQMAHQKRFIERKYRQELKEMRWEREHQEREPEEAEDIKK
binding [8]: binds

B3: Sept7 (endogenous, mouse cortical neurons) (protein, UniProt O55131 1-436)
chain: MSVSARSAAAEERSVNCGTMAQPKNLEGYVGFANLPNQVYRKSVKRGFEFTLMVVGESGLGKSTLINSLFLTDLYSPEYPGPSHRIKKTVQVEQSKVLIKEGGVQLLLTIVDTPGFGDAVDNSNCWQPVIDYIDSKFEDYLNAESRVNRRQMPDNRVQCCLYFIAPSGHGLKPLDIEFMKRLHEKVNIIPLIAKADTLTPEECQQFKKQIMKEIQEHKIKIYEFPETDDEEENKLVKKIKDRLPLAVVGSNTIIEVNGKRVRGRQYPWGVAEVENGEHCDFTILRNMLIRTHMQDLKDVTNNVHYENYRSRKLAAVTYNGVDNNKNKGQLTKSPLAQMEEERREHVAKMKKMEMEMEQVFEMKVKEKVQKLKDSEAELQRRHEQMKKNLEAQHKELEEKRRQFEEEKANWEAQQRILEQQNSSRTLEKNKKKGKIF
binding [9]: binds

B4: Synpo (endogenous, mouse cortical neurons) (protein, UniProt Q8CC35 1-929)
chain: MLGAHFPPPPLGASEGRAAPCTFQIPDGSYRCLALEAEESSSEDGLQGEVRLVDLEEEGTSQSRANHGTPPLSRAPAIIQPSSCHREARGGFQRSDRPSHDWDVVQARKVMTASGSSSPVPRVAQKPALGRSTSFTENDLKEAKARSQQIAAQLTTPPSSNSRGVQLFNRRRQRVNEFTLESRGQRSPKLNQEALQTGRPLSPIGHAPGPSVKPTSPSKPGSPKHPSPQSPSRGVAGHIMEGYSEEASLLRHLEKVASEEEEVPLVVYLKENAALLTANGLHLSQSRETQQSSPNPPDTEVPSPAADINQNPSSPNATLTTLASSSHHSQPTADINQNPPAAITPVPQNSSQAQCSPNGTLDSKPGTLCADDGQSPVPAEEVRSSILLIDKVSAPPSAASTFSREATPLSSSGPPAADLMSSSLLIDMQPSTLVAPAEQEVPGHVAVTTPTKVYSEVHLTLAKPASVVNRTARPFGIQSPGTSQIEQSPMMGRRQFGEKAWAPPASSMADRSPQPQRHIMSRSPMVERRLLGQRSPVLERRPLGNFTPPPTYAETLSTAPVASRVRSPPSYSTLYPSSDPKPSHLKGQVAPANKTGILEESMARRGSRKSMFTFVEKPKVTPNPDLLDLVQTADEKRRQRDHGEVGMEEEPFALGAEASNFQQEPIARDRASPAAAEEAVPEWASCLKSPRIQAKPKPKPNQNLSEASGKGAELYARRQSRMEKYVIESSGHAELARCPSPTMSLPSSWKYTTNAPGGFRVASLSPARTPPASLYHGYLPENGVLRPEPTKQQPYQMRPSLYALSPVKEPAKASSRATSSRTPSRTVSPRAASPAKPSSLDLVPNLPRAGLPPSPALPRPSRSSPGLYTAPVQDSLQPTAVSPTYSSDISPVSPSRAWSPRAKQAPRPSFSTRNAGIEAQVWKPSFCFK
binding [10]: binds
